From publication PMC11568337
No constants are given. Whether binding was seen depends on the method and setting. In cells and extracts the contact can be indirect. A yes stands for co-enrichment or nearness to the bait. Other partners may have been found. Blank lines part the entries; values can stand above or below the molecule they belong to.

Experiments:
[1] = target: T1, actin-specific bicyclic peptide A15; test: affinity purification with mass spectrometry; FITC-labelled bicyclic peptide A15 (F- and G-actin) on anti-FITC antibody/Protein G Dynal beads; total yeast cell lysate, 1.5 h at 4 °C; 50 mM HEPES pH 7.5, 20 mM NaCl, 1 mM EDTA, 0.1% Triton X-100; silver-stained bands identified by mass spectrometry; pair: peptide and actin; only the target purified
T1 sequence (peptide, FITC labeled; bicyclic (circularized) peptide): ACYRQWNKCENGWVRCG

[2] = target: T2, actin-specific bicyclic peptide A18; test: affinity purification with mass spectrometry; FITC-labelled bicyclic peptide A18 (F-actin specific) on anti-FITC antibody/Protein G Dynal beads; total yeast cell lysate, 1.5 h at 4 °C; 50 mM HEPES pH 7.5, 20 mM NaCl, 1 mM EDTA, 0.1% Triton X-100; silver-stained bands identified by mass spectrometry; pair: peptide and actin; only the target purified
T2 sequence (peptide, FITC labeled; bicyclic (circularized) peptide): ACREGQVACMVRKFECG

[3] = target: actin (S. cerevisiae (endogenous in yeast extract)) (UniProt P60010); test: affinity purification with mass spectrometry; actin captured from total yeast cell lysate by bead-bound bicyclic peptide A15 (F- and G-actin), 1.5 h at 4 °C; 50 mM HEPES pH 7.5, 20 mM NaCl, 1 mM EDTA, 0.1% Triton X-100; proteins recovered with actin identified by mass spectrometry of silver-stained bands
[4] = target: actin (S. cerevisiae (endogenous in yeast extract)) (UniProt P60010); test: affinity purification with mass spectrometry; actin captured from total yeast cell lysate by bead-bound bicyclic peptide A18 (F-actin specific), 1.5 h at 4 °C; 50 mM HEPES pH 7.5, 20 mM NaCl, 1 mM EDTA, 0.1% Triton X-100; proteins recovered with actin identified by mass spectrometry of silver-stained bands

- binding [3]: binds
- binding [4]: binds
B1: Pan1 (protein, UniProt P32521 1-1480)
chain: MYNPYQQQGMGYQQQQQQQQQQPNGFYPQQQQGQSSNQPQGQPQPQQQMAFNQPQATGIGGMPQSFGNSFSSMPQQPQTGYNNNGNNGSVYGNGNFGQQPQQQQQQAKPQHTGYVPNSSMPMMNTTGTMPPPNPAQQPQLQSIQPQGTGYYQAANTANVHSVQPLQSQGTGYYVSTPNLISSNQTQQPLQAQGTGYYQSQPQQVPPPQQAQSLQPLKPQQTGFYLQPQNQAPLEPLKPTATGFVNSFANNGLNNDIKIPAIRLSFITAQDQAKFETLFRSIVTNGSNTVSGANCRKILMRSGLPPSQLARIWTLCDTSKAGELLFPEFALAMHLINDVLQGDTIPYELDSKTKNEVSSFIDAINLSIANQDSSANDAPKTPFDEFITAGVQNLQPQPTGYMPQTSFGIPLQSQITGGGVASALNPQSTGFMAPTTFNMSMNTGTPGLNPQITGGAPASMQPNITGNALQPQTTGMMPQTTGMMPQTTGMMPQTSFGVNLGPQLTGGALQSQYTGGYGSVMPQQSGPASMPNLSFNQQGLQSQLTGLQPQPTGFLPPSNFSATMPLTAQKTGFGNNEIYTKSNFNNNLIDNSSQDKISTEEKSLFYKIFETFDTQNKGLLDSPTAVEIFRKSGLNRADLEQIWNLCDINNTGQLNKQEFALGMHLVYGKLNGKPIPNVLPSSLIPSSTKLLDNLKNQLKTEPTTTKEKPSFGKIDALSYKNNDDDVLPNYRNRRKVYSAKNEEQSSFSSPSAKSVNHSSSTLQTDDISVDKTVEKKTAKPKYAGFSREINLKNIASLENEIKNISNPENCYDSSIPSDLTSRFDAIIAKLPNLFNEISTIDNEITNAKIQLYRKKNPSSIIGSGPNGEITENDRKKAKSRALLRARMSALTGKSTESEDSLSMEDEQQSAEIKRIQQENGKNQEIIKDIRSSISDISASLKSTMTGSNMISNQEFERWEFGIGLEDGVREFLDDLKSNSNKSVTESSPFVPSSTPTPVDDRSSSPSYSQFKTAEERAAYLKEQAKKRMKEKLAKFDKNRRNVTQSSRSISSENSREQPQQIAGSSNLVEPRATPFQEEKYVEVAQPTQPVQSTQPVQPTQPVQPTQPVQPTQPVQPTQPVQPTQPVQNVYNAKQESDDEDEDDEEKRLQEELKRLKLKKKADKEKRLAALRKQIEDAQNESDEEETNGKDNFGGHVNVPQAAPVAPSAAFSQNSTNAPRSVHAAVTPAAGKNSTGLPSTTMGHNPYFKDASASSTSTFDARAAEMQRRIQRGLDEDEDDGWSDEDESNNRVAVDNKVEEAKIGHPDHARAPPVTAAPLPSVTPVPPAVPVPQANTSNEKSSPIPIAPIPPSVTQEPPVPLAPPLPAVDGFQEPPIPSAPAIATAVQKSGSSTPALAGGVLPPPPPLPTQQASTSEPIIAHVDNYNGAEKGTGAYGSDSDDDVLSIPESVGTDEEEEGAQPVSTAGIPSIPPAGIPPPPPLP

- binding [3]: binds
- binding [4]: binds
B2: Sla2 (protein, UniProt P33338 1-968)
chain: MSRIDSDLQKALKKACSVEETAPKRKHVRACIVYTWDHQSSKAVFTTLKTLPLANDEVQLFKMLIVLHKIIQEGHPSALAEAIRDRDWIRSLGRVHSGGSSYSKLIREYVRYLVLKLDFHAHHRGFNNGTFEYEEYVSLVSVSDPDEGYETILDLMSLQDSLDEFSQIIFASIQSERRNTECKISALIPLIAESYGIYKFITSMLRAMHRQLNDAEGDAALQPLKERYELQHARLFEFYADCSSVKYLTTLVTIPKLPVDAPDVFLINDVDESKEIKFKKREPSVTPARTPARTPTPTPPVVAEPAISPRPVSQRTTSTPTGYLQTMPTGATTGMMIPTATGAANAIFPQATAQMQPDFWANQQAQFANEQNRLEQERVQQLQQQQAQQELFQQQLQKAQQDMMNMQLQQQNQHQNDLIALTNQYEKDQALLQQYDQRVQQLESEITTMDSTASKQLANKDEQLTALQDQLDVWERKYESLAKLYSQLRQEHLNLLPRFKKLQLKVNSAQESIQKKEQLEHKLKQKDLQMAELVKDRDRARLELERSINNAEADSAAATAAAETMTQDKMNPILDAILESGINTIQESVYNLDSPLSWSGPLTPPTFLLSLLESTSENATEFATSFNNLIVDGLAHGDQTEVIHCVSDFSTSMATLVTNSKAYAVTTLPQEQSDQILTLVKRCAREAQYFFEDLMSENLNQVGDEEKTDIVINANVDMQEKLQELSLAIEPLLNIQSVKSNKETNPHSELVATADKIVKSSEHLRVDVPKPLLSLALMIIDAVVALVKAAIQCQNEIATTTSIPLNQFYLKNSRWTEGLISAAKAVAGATNVLITTASKLITSEDNENTSPEQFIVASKEVAASTIQLVAASRVKTSIHSKAQDKLEHCSKDVTDACRSLGNHVMGMIEDDHSTSQQQQPLDFTSEHTLKTAEMEQQVEILKLEQSLSNARKRLGEIRRHAYYNQDDD

Second part, the molecule before the results:

Molecule: actin (from UniProt P60010 1-375)
- binding [1]: binds
- binding [2]: binds

Molecule: Las17 (from UniProt Q12446 1-633)
- binding [3]: binds
- binding [4]: binds
